Literature values in US8962847B2, “Multicomponent crystals made of ([2-amino-6-(4-fluoro-benzylamino)-pyridin-3-yl]-carbamic acid ethyl ester and an arylpropionic acid” (TEVA GmbH, priority 2010, dated 2015).
At least one structure is not confirmed: it was looked up by name or label, or the drawing left a doubt.

System: inflammation
Conditions: animal experiments

For `CCOC(=O)Nc1ccc(NCc2ccc(F)cc2)nc1N` [flupirtine], the “dosage at which a satisfactory anti-inflammatory action has been observed” value is listed as over 30 mg per kg body weight.
